Laboratory results: PubChem BioAssay AID624291 (National Center for Advancing Translational Sciences (NCATS), 2012)
Screen size: about 350,000 compounds; about 220 (0.063%) were called active. The inconclusive results got no clear call from the source; some entries with a clear call stand among them for comparison. The call rests on the fitted dose curve; in most records, active means well fitted activation curve with a large enough effect; inconclusive means small, poorly fitted or top-dose-only effect; inactive means no such curve, though single readings can be large or run the other way. A potency beside an inconclusive call is a rough fit, not a confirmed value.

Experiment: qHTS for Activators of Integrin-Mediated Alleviation for Muscular Dystrophy; further: nearly all actives have a fitted effect of over 60% in size;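 on activation: 100% = response of the positive control SU9516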
Details: alpha7betagal myoblasts, beta-gal FDG fluorescence, 48 h; activation: at 38.3 µM (top of the series)
In short: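 alpha7betagal+/- myoblasts (passage 13, 250/well) treated 48 h at 37C with compounds at 1:260 dilution of DMSO stock. Lysed, then beta-galactosidase activity read as FDG fluorescence (ex 480/em 540) after 30 min, with pre-read for autofluorescence.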
Potency means the concentration at half of the fitted maximal effect.

Row | Compound | Potency | activation
1 | C=C(C)CCOC(=O)C(CC(=O)O)NCc1ccco1 (stereo not drawn) | inconclusive: 5.01 µM [activator, single point] | 
2 | CC(NC(=O)CN(c1ccc(Br)cc1)S(C)(=O)=O)c1ccccc1 (stereo not drawn) | inconclusive: 5.01 µM [activator, single point] | 
3 | CC(=O)N1CCc2c(sc(NC(=O)c3ccc([N+](=O)[O-])o3)c2C(N)=O)C1 |  | inactive: -64.6%
4 | O=C(/C=C/c1ccc(OCCCF)cc1)Nc1ccnc(-c2ccncc2)n1 | inconclusive: 8.91 µM [activator, partial curve, poor fit] | 
5 | COc1ccc(O)c(CN2CCN(CCc3ccccc3)C(CCO)C2)c1 (stereo not drawn) | inconclusive: 5.01 µM [activator, single point] | 
6 | NC(=O)C1CCN(S(=O)(=O)c2ccccc2[N+](=O)[O-])CC1 |  | inconclusive: -18.3% [activator]
7 | COc1cccc(NC(=O)c2oc3ccccc3c2NC(=O)c2ccc3c(c2)OCO3)c1 | inconclusive: 2 µM [activator, partial curve, poor fit] | 
8 | COc1cc(/C=C2/SC(=S)N(C)C2=O)ccc1OC(=O)c1ccco1 | inconclusive: 2.24 µM [activator, partial curve, poor fit] | 
9 | COc1ccc(NS(=O)(=O)c2cc(NC(=O)c3ccc(S(=O)(=O)N(C)C)cc3)ccc2N2CCOCC2)cc1 | inconclusive: 2 µM [activator, partial curve, poor fit] | 
10 | Cc1[nH]n(-c2ncc(-c3ccccc3)s2)c(=O)c1C(c1ccc(Cl)cc1)C(C#N)C#N (stereo not drawn) |  | inconclusive: -5.97% [activator]
11 | Cc1cc(=O)oc2cc(OCC(=O)N3c4ccccc4CC3C)ccc12 (stereo not drawn) |  | inactive: -28.4%
12 | Cc1ccc(-c2cc(C(=O)Nc3cc(C)on3)c3ccccc3n2)cc1 | inconclusive: 2.82 µM [activator, full curve] | 
13 | CC(C)(C)N(Cc1ccccc1)C(=O)COC(=O)CN1C(=O)C2CC=CCC2C1=O (stereo not drawn) |  | inactive: 6.61%
14 | Cc1ccc(NC(=S)Nc2cccc3cnccc23)cc1C | inconclusive: 0.631 µM [activator, full curve, poor fit] | 
15 | COCCCNc1nc2cc(OC)c(OC)cc2c2nc(-c3ccccc3)nn12 |  | inactive: -17%
16 | Cc1ccc(NC(=O)CSc2nnc(-c3cc(C)on3)o2)cc1 | inconclusive: 3.16 µM [activator, partial curve, poor fit] | 
17 | COc1ccc(N(C)S(=O)(=O)c2cccc(C(=O)Nc3ccc4c(c3)OCCO4)c2)cc1 | inconclusive: 7.94 µM [activator, partial curve, poor fit] | 
18 | CCN(CC)S(=O)(=O)c1ccc(N/N=C/c2cc(OC)ccc2O)nc1 |  | inactive: -20.4%

Another view of part of the listing above:
Cc1[nH]n(-c2ncc(-c3ccccc3)s2)c(=O)c1C(c1ccc(Cl)cc1)C(C#N)C#N (stereo not drawn)
  activation: inconclusive: -5.97% [activator]
Cc1cc(=O)oc2cc(OCC(=O)N3c4ccccc4CC3C)ccc12 (stereo not drawn)
  activation: inactive: -28.4%
